# Measured values taken from the supplement of paper PMC8728848.
# Some of the results follow.
# Legend:
# Test in all cases: glycan array binding signal (z-score within array); higher = stronger binding
# Conditions in all cases: glycan notation: IUPAC condensed, linker removed
# Fuc(a1-2)Gal = target: Fuc(a1-2)Gal
# Method in brief: (§1)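 Columns mapping to the same glycan were averaged after glycan names were converted to IUPAC-condensed notation. The data come from 3228 arrays in the Consortium for Functional Glycomics database, limited to those with an available protein sequence. Binding is reported as a within-array Z-score averaged across arrays of one protein sequence and across linkers.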
# Fuc(a1-2)Gal(b1-3)GalNAc = target: Fuc(a1-2)Gal(b1-3)GalNAc
# Method in brief: as §1
# [1] = target: Fuc(a1-2)Gal(b1-3)GalNAc(b1-3)Gal
# Method in brief: as §1
# [2] = target: Fuc(a1-2)Gal(b1-3)GalNAc(b1-3)Gal(a1-4)Gal(b1-4)Glc
# Method in brief: as §1
# [3] = target: Fuc(a1-2)Gal(b1-3)GalNAc(b1-3)Gal(b1-4)Glc
# Method in brief: as §1
# [4] = target: Fuc(a1-2)Gal(b1-3)GalNAc(b1-4)[Neu5Ac(a2-3)]Gal(b1-4)Glc
# Method in brief: as §1
# Fuc(a1-2)Gal(b1-3)GlcNAc = target: Fuc(a1-2)Gal(b1-3)GlcNAc
# Method in brief: as §1
# [5] = target: Fuc(a1-2)Gal(b1-3)[Fuc(a1-4)]GlcNAc
# Method in brief: as §1
# Fuc(a1-2)Gal(b1-4)Glc = target: Fuc(a1-2)Gal(b1-4)Glc
# Method in brief: as §1
# Fuc(a1-2)Gal(b1-4)Glc6S = target: Fuc(a1-2)Gal(b1-4)Glc6S
# Method in brief: as §1
# Fuc(a1-2)Gal(b1-4)GlcNAc = target: Fuc(a1-2)Gal(b1-4)GlcNAc
# Method in brief: as §1
# [6] = target: Fuc(a1-2)Gal(b1-4)GlcNAc(b1-3)Gal(b1-4)GlcNAc
# Method in brief: as §1
# [7] = target: Fuc(a1-2)Gal(b1-4)GlcNAc(b1-3)Gal(b1-4)GlcNAc(b1-3)Gal(b1-4)GlcNAc
# Method in brief: as §1
# [8] = target: Fuc(a1-2)Gal(b1-4)GlcNAc6S
# Method in brief: as §1
# [9] = target: Fuc(a1-2)Gal(b1-4)[Fuc(a1-3)]GalNAc(b1-3)Gal(b1-4)[Fuc(a1-3)]GlcNAc
# Method in brief: as §1
# [10] = target: Fuc(a1-2)Gal(b1-4)[Fuc(a1-3)]GalNAc(b1-3)Gal(b1-4)[Fuc(a1-3)]GlcNAc(b1-3)Gal(b1-4)[Fuc(a1-3)]GalNAc
# Method in brief: as §1
# [11] = target: Fuc(a1-2)Gal(b1-4)[Fuc(a1-3)]GlcNAc
# Method in brief: as §1
# Fuc(a1-2)Gal6S(b1-4)Glc = target: Fuc(a1-2)Gal6S(b1-4)Glc
# Method in brief: as §1
# [12] = target: Fuc(a1-2)Gal6S(b1-4)Glc6S
# Method in brief: as §1
# [13] = target: Fuc(a1-2)Gal6S(b1-4)GlcNAc
# Method in brief: as §1
# Fuc(a1-2)GlcNAc = target: Fuc(a1-2)GlcNAc
# Method in brief: as §1
# Fuc(a1-2)[Gal(a1-3)]Gal = target: Fuc(a1-2)[Gal(a1-3)]Gal
# Method in brief: as §1
# [14] = target: Fuc(a1-2)[Gal(a1-3)]Gal(b1-3)GlcNAc
# Method in brief: as §1
# [15] = target: Fuc(a1-2)[Gal(a1-3)]Gal(b1-4)Glc
# Method in brief: as §1
# [16] = target: Fuc(a1-2)[Gal(a1-3)]Gal(b1-4)GlcNAc
# Method in brief: as §1
# [17] = target: Fuc(a1-2)[Gal(a1-3)]Gal(b1-4)[Fuc(a1-3)]GlcNAc
# Method in brief: as §1
# [18] = target: Fuc(a1-2)[Gal(a1-4)]Gal(b1-4)GalNAc
# Method in brief: as §1
# [19] = target: Fuc(a1-2)[Gal(a1-4)]Gal(b1-4)GlcNAc
# Method in brief: as §1
# [20] = target: Fuc(a1-2)[GalNAc(a1-3)]Gal
# Method in brief: as §1
# [21] = target: Fuc(a1-2)[GalNAc(a1-3)]Gal(b1-3)GlcNAc
# Method in brief: as §1
# [22] = target: Fuc(a1-2)[GalNAc(a1-3)]Gal(b1-4)Glc
# Method in brief: as §1
# [23] = target: Fuc(a1-2)[GalNAc(a1-3)]Gal(b1-4)GlcNAc
# Method in brief: as §1
# [24] = target: Fuc(a1-2)[GalNAc(a1-3)]Gal(b1-4)[Fuc(a1-3)]GlcNAc
# Method in brief: as §1
# [25] = target: Fuc(a1-2)[GalNAc(a1-4)]Gal(b1-4)GlcNAc
# Method in brief: as §1
# [26] = target: Fuc(a1-2)[GalNAc(b1-3)]Gal
# Method in brief: as §1
# Fuc(a1-3)GlcNAc = target: Fuc(a1-3)GlcNAc
# Method in brief: as §1
# [27] = target: Fuc(a1-3)[Gal(b1-4)]Glc6S
# Method in brief: as §1
# [28] = target: Fuc(a1-3)[Gal(b1-4)]GlcNAc
# Method in brief: as §1
# [29] = target: Fuc(a1-3)[Gal(b1-4)]GlcNAc(b1-3)Gal(b1-3)[Fuc(a1-4)]GlcNAc
# Method in brief: as §1
# [30] = target: Fuc(a1-3)[Gal(b1-4)]GlcNAc(b1-3)Gal(b1-4)[Fuc(a1-3)]GlcNAc
# Method in brief: as §1
# [31] = target: Fuc(a1-3)[Gal(b1-4)]GlcNAc(b1-3)Gal(b1-4)[Fuc(a1-3)]GlcNAc(b1-3)Gal(b1-4)[Fuc(a1-3)]GlcNAc
# Method in brief: as §1
# [32] = target: Fuc(a1-3)[Gal(b1-4)]GlcNAc(b1-4)Gal(b1-4)[Fuc(a1-3)]GlcNAc
# Method in brief: as §1
# [33] = target: Fuc(a1-3)[Gal(b1-4)]GlcNAc(b1-4)Gal(b1-4)[Fuc(a1-3)]GlcNAc(b1-4)Gal(b1-4)[Fuc(a1-3)]GlcNAc
# Method in brief: as §1
# [34] = target: Fuc(a1-3)[Gal(b1-4)]GlcNAc6S
# Method in brief: as §1
# [35] = target: Fuc(a1-3)[Gal3S(b1-4)]Glc
# Method in brief: as §1
# [36] = target: Fuc(a1-3)[Gal3S(b1-4)]Glc6S
# Method in brief: as §1
# [37] = target: Fuc(a1-3)[Gal3S(b1-4)]GlcNAc
# Method in brief: as §1
# [38] = target: Fuc(a1-3)[Gal3S(b1-4)]GlcNAc6S
# Method in brief: as §1
# [39] = target: Fuc(a1-3)[GalNAc(b1-4)]Gal(b1-4)GlcNAc
# Method in brief: as §1
# Fuc(a1-4)GlcNAc = target: Fuc(a1-4)GlcNAc
# Method in brief: as §1
# Fuc(b1-3)GlcNAc = target: Fuc(b1-3)GlcNAc
# Method in brief: as §1
# Gal(a1-2)Gal = target: Gal(a1-2)Gal
# Method in brief: as §1
# Gal(a1-3)Gal = target: Gal(a1-3)Gal
# Method in brief: as §1
# Gal(a1-3)Gal(b1-3)Glc = target: Gal(a1-3)Gal(b1-3)Glc
# Method in brief: as §1
# Gal(a1-3)Gal(b1-3)GlcNAc = target: Gal(a1-3)Gal(b1-3)GlcNAc
# Method in brief: as §1
# Gal(a1-3)Gal(b1-4)Glc = target: Gal(a1-3)Gal(b1-4)Glc
# Method in brief: as §1
# Gal(a1-3)Gal(b1-4)GlcNAc = target: Gal(a1-3)Gal(b1-4)GlcNAc
# Method in brief: as §1
# [40] = target: Gal(a1-3)Gal(b1-4)[Fuc(a1-3)]GalNAc
# Method in brief: as §1
# [41] = target: Gal(a1-3)Gal(b1-4)[Fuc(a1-3)]GlcNAc
# Method in brief: as §1
# Gal(a1-3)GalNAc = target: Gal(a1-3)GalNAc
# Method in brief: as §1
binder,measurement,setting,value
"TIM-1 (Mus musculus), AAL35774 (protein) MNQIQVFISGLILLLPGAVDSYVEVKGVVGHPVTLPCTYSTYRGITTTCWGRGQCPSSACQNTLIWTNGHRVTYQKSSRYNLKGHISEGDVSLTIENSVESDSGLYCCRVEIPGWFNDQKVTFSLQVKPEIPTRPPTRPTTTRPTATGRPTTISTRSTHVPTSIRVSTSTPPTSTHTWTHKPEPTTFCPHETTAEVTGIPSHTPTDWNGTVTSSGDTWSNHTEAIPPGKPQKNPTKGFYVGICIAALLLLLLVSTVAITRYILMKRKSASLSVVAFRVSKIEALQNAAVVHSRAEDNIYIVEDRP",glycan array binding signal (z-score),Fuc(a1-2)Gal,0.048
same,glycan array binding signal (z-score),Fuc(a1-2)Gal(b1-3)GalNAc,-0.16
same,glycan array binding signal (z-score),[1],1.08
same,glycan array binding signal (z-score),[2],-0.186
same,glycan array binding signal (z-score),[3],-0.23
same,glycan array binding signal (z-score),[4],-0.103
same,glycan array binding signal (z-score),Fuc(a1-2)Gal(b1-3)GlcNAc,-0.171
same,glycan array binding signal (z-score),[5],-0.554
same,glycan array binding signal (z-score),Fuc(a1-2)Gal(b1-4)Glc,0.483
same,glycan array binding signal (z-score),Fuc(a1-2)Gal(b1-4)Glc6S,-0.504
same,glycan array binding signal (z-score),Fuc(a1-2)Gal(b1-4)GlcNAc,0.782
same,glycan array binding signal (z-score),[6],-0.209
same,glycan array binding signal (z-score),[7],0.178
same,glycan array binding signal (z-score),[8],-0.823
same,glycan array binding signal (z-score),[9],-0.386
same,glycan array binding signal (z-score),[10],-0.596
same,glycan array binding signal (z-score),[11],-0.385
same,glycan array binding signal (z-score),Fuc(a1-2)Gal6S(b1-4)Glc,-0.753
same,glycan array binding signal (z-score),[12],-0.608
same,glycan array binding signal (z-score),[13],-0.968
same,glycan array binding signal (z-score),Fuc(a1-2)GlcNAc,-0.289
same,glycan array binding signal (z-score),Fuc(a1-2)[Gal(a1-3)]Gal,0.559
same,glycan array binding signal (z-score),[14],-0.421
same,glycan array binding signal (z-score),[15],-0.009
same,glycan array binding signal (z-score),[16],-0.256
same,glycan array binding signal (z-score),[17],0.1
same,glycan array binding signal (z-score),[18],-0.058
same,glycan array binding signal (z-score),[19],0.88
same,glycan array binding signal (z-score),[20],-0.325
same,glycan array binding signal (z-score),[21],-0.323
same,glycan array binding signal (z-score),[22],-0.228
same,glycan array binding signal (z-score),[23],-0.268
same,glycan array binding signal (z-score),[24],-0.493
same,glycan array binding signal (z-score),[25],-0.239
same,glycan array binding signal (z-score),[26],-0.205
same,glycan array binding signal (z-score),Fuc(a1-3)GlcNAc,-0.318
same,glycan array binding signal (z-score),[27],-0.34
same,glycan array binding signal (z-score),[28],-0.275
same,glycan array binding signal (z-score),[29],0.109
same,glycan array binding signal (z-score),[30],-0.089
same,glycan array binding signal (z-score),[31],-0.43
same,glycan array binding signal (z-score),[32],0.339
same,glycan array binding signal (z-score),[33],-0.967
same,glycan array binding signal (z-score),[34],-0.818
same,glycan array binding signal (z-score),[35],-0.853
same,glycan array binding signal (z-score),[36],0.935
same,glycan array binding signal (z-score),[37],-0.291
same,glycan array binding signal (z-score),[38],0.826
same,glycan array binding signal (z-score),[39],-0.76
same,glycan array binding signal (z-score),Fuc(a1-4)GlcNAc,0.748
same,glycan array binding signal (z-score),Fuc(b1-3)GlcNAc,-0.011
same,glycan array binding signal (z-score),Gal(a1-2)Gal,0.18
same,glycan array binding signal (z-score),Gal(a1-3)Gal,0.169
same,glycan array binding signal (z-score),Gal(a1-3)Gal(b1-3)Glc,-0.335
same,glycan array binding signal (z-score),Gal(a1-3)Gal(b1-3)GlcNAc,-0.558
same,glycan array binding signal (z-score),Gal(a1-3)Gal(b1-4)Glc,0.13
same,glycan array binding signal (z-score),Gal(a1-3)Gal(b1-4)GlcNAc,-0.231
same,glycan array binding signal (z-score),[40],0.158
same,glycan array binding signal (z-score),[41],2.6
same,glycan array binding signal (z-score),Gal(a1-3)GalNAc,0.027

# Random excerpt: 2 records from the list
binder,measurement,setting,value
"TIM-1 (Mus musculus), AAL35774 (protein) MNQIQVFISGLILLLPGAVDSYVEVKGVVGHPVTLPCTYSTYRGITTTCWGRGQCPSSACQNTLIWTNGHRVTYQKSSRYNLKGHISEGDVSLTIENSVESDSGLYCCRVEIPGWFNDQKVTFSLQVKPEIPTRPPTRPTTTRPTATGRPTTISTRSTHVPTSIRVSTSTPPTSTHTWTHKPEPTTFCPHETTAEVTGIPSHTPTDWNGTVTSSGDTWSNHTEAIPPGKPQKNPTKGFYVGICIAALLLLLLVSTVAITRYILMKRKSASLSVVAFRVSKIEALQNAAVVHSRAEDNIYIVEDRP",glycan array binding signal (z-score),Gal(a1-3)Gal,0.169
same,glycan array binding signal (z-score),[25],-0.239
